No constants are given. Whether binding was seen depends on the method and setting. In cells and extracts the contact can be indirect. For some assays here: A result given as binding can be weak or reduced; the word gives no strength. Sequences can lack the tags named with a protein. Blank lines part the entries; values can stand above or below the molecule they belong to.
What was measured:
[1] = molecular target: T1, GFP-MVH (mouse VASA homologue) (mouse) (UniProt Q61496); test: co-IP; HEK293T cells co-transfected with FLAG- and GFP-tagged constructs; lysates in TNE buffer (10 mM Tris-HCl pH 7.5, 150 mM NaCl, 1 mM EDTA, 1% Nonidet P-40); precipitated with anti-FLAG or anti-GFP antibody overnight at 4 °C; in Fig. 6 with or without co-expressed CaMKIV-CA
T1 sequence: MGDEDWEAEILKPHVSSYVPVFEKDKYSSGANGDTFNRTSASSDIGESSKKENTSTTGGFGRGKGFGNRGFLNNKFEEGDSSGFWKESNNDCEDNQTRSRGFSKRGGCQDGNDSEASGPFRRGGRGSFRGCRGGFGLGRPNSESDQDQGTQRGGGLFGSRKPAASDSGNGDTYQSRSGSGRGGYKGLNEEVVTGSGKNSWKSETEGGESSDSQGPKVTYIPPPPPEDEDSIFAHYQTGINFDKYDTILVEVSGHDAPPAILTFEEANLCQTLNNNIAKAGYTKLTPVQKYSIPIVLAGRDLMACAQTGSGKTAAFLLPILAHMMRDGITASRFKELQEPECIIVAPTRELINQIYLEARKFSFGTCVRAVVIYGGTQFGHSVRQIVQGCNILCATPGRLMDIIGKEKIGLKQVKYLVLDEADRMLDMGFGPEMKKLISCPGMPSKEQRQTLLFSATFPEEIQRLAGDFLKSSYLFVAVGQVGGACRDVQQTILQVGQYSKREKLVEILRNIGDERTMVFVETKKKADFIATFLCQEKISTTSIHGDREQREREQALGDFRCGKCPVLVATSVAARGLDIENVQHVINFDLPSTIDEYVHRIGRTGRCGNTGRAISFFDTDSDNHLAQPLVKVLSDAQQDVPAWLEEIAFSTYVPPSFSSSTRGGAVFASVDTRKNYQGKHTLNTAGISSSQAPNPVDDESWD

The chains behind the UniProt entries cited, without tags or fusion partners. Where a name states a change or a piece, a line headed by the entry shows the natural chain unless it says otherwise.
UniProt Q99PW8: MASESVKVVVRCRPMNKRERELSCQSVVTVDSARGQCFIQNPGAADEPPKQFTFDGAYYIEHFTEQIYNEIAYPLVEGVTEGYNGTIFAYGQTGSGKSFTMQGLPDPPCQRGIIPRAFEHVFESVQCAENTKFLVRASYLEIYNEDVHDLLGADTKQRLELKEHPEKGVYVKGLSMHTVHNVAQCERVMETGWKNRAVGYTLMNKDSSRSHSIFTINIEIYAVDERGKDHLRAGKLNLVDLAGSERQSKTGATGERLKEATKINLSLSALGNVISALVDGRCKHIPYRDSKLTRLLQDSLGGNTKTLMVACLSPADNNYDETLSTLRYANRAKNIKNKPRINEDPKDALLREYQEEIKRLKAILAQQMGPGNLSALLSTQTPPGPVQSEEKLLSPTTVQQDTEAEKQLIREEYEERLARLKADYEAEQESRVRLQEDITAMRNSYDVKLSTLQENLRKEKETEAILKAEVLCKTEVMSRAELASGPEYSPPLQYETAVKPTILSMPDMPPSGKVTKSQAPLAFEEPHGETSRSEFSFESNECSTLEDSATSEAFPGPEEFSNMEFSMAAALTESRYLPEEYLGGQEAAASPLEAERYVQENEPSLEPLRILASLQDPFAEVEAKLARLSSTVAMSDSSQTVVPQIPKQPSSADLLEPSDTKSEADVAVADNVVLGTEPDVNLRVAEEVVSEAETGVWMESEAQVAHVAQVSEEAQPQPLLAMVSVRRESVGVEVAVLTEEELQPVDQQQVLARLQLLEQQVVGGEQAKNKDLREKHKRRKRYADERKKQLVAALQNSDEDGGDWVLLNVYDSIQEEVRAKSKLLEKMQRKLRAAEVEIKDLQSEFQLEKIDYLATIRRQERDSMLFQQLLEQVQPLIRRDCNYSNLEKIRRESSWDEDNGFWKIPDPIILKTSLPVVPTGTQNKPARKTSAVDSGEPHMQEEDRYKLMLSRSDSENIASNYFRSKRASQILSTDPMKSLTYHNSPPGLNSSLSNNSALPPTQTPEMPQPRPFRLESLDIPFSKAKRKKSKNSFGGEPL

[2] = molecular target: GST-KIF17b-CTD (C-terminal domain of KIF17b) (mouse); test: pull-down; purified GST-fusions of KIF17b truncations bound to glutathione-Sepharose beads, incubated with lysates of HEK293T cells transfected with GFP-MVH or GFP-MIWI; blotted with anti-GFP antibody; in Fig. 4C precipitates treated with RNase A at 37 °C for 1 min; only the target purified
GST-KIF17b-tail (mouse) = test: as above
[3] = molecular target: GST-KIF17b-tail C (mouse); test: as above
[4] = molecular target: GST-KIF17b-tail C-ΔIV (mouse); test: as above
[5] = molecular target: GST-KIF17b-tail C-ΔPZD (mouse); test: as above
[6] = molecular target: GST-KIF17b-tail C-ΔSH3 (mouse); test: as above
[7] = molecular target: FLAG-KIF17b-ΔIV (mutant form of KIF17b with R-K-K-S deletion) (mouse) (UniProt Q99PW8); test: co-IP; HEK293T cells co-transfected with FLAG- and GFP-tagged constructs; lysates in TNE buffer (10 mM Tris-HCl pH 7.5, 150 mM NaCl, 1 mM EDTA, 1% Nonidet P-40); precipitated with anti-FLAG or anti-GFP antibody overnight at 4 °C; in Fig. 6 with or without co-expressed CaMKIV-CA

- binding [1]: binds
Molecule: FLAG-KIF17b-ΔM (motor-domain-deleted form of FLAG-tagged KIF17b) (mouse) (domain or fragment)

- binding [2]: binds
- binding (GST-KIF17b-tail (mouse)): binds
- binding [3]: binds
- binding [4]: no binding
- binding [5]: binds
- binding [6]: binds
B1: GFP-MVH (mouse VASA homologue) (protein, UniProt Q61496 1-702)
chain: T1 sequence

- binding [7]: binds
B2: GFP-CaMKIV-FL (enzyme, UniProt P08414 1-469)
chain: MLKVTVPSCPSSPCSSVTASTENLVPDYWIDGSNRDPLGDFFEVESELGRGATSIVYRCKQKGTQKPYALKVLKKTVDKKIVRTEIGVLLRLSHPNIIKLKEIFETPTEISLVLELVTGGELFDRIVEKGYYSERDARDAVKQILEAVAYLHENGIVHRDLKPENLLYATPAPDAPLKIADFGLSKIVEHQVLMKTVCGTPGYCAPEILRGCAYGPEVDMWSVGIITYILLCGFEPFYDERGDQFMFRRILNCEYYFISPWWDEVSLNAKDLVKKLIVLDPKKRLTTFQALQHPWVTGKAANFVHMDTAQKKLQEFNARRKLKAAVKAVVASSRLGSASSSHTSIQENHKASSDPPSTQDAKDSTDLLGKKMQEEDQEEDQVEAEASADEMRKLQSEEVEKDAGVKEEETSSMVPQDPEDELETDDPEMKRDSEEKLKSVEEEMDPMTEEEAPDAGLGVPQQDAIQPEY
